One experiment deals with purified vimentin (UniProt P08670). The experiment in a line: ELISA; plate coated with vimentin (or PBS blank), blocked with 5% NFDM; AnxA2 at 1.5 uM or 0 uM, 1 h at RT; detected with anti-His tag antibody, HRP secondary, TMB, absorbance at 450 nm; both purified. Background: In an ELISA, binding on a coated surface is turned into a signal by an enzyme label.
For experiment [1], the target named is Annexin A2 (human (endogenous in hGF)) (UniProt P07355). As to the kind of experiment: co-IP; hGF lysates (IP lysis buffer: 25 mM Tris-HCl pH 7.4, 150 mM NaCl, 1 mM EDTA, 1% NP-40, 5% glycerol) immunoprecipitated with AnxA2 antibody or pre-immune serum, blotted for vimentin; cells with or without IL-1beta (10 ng/mL, 30 min).

Amino acid sequences for entries named in this document (tags omitted).
UniProt P08670: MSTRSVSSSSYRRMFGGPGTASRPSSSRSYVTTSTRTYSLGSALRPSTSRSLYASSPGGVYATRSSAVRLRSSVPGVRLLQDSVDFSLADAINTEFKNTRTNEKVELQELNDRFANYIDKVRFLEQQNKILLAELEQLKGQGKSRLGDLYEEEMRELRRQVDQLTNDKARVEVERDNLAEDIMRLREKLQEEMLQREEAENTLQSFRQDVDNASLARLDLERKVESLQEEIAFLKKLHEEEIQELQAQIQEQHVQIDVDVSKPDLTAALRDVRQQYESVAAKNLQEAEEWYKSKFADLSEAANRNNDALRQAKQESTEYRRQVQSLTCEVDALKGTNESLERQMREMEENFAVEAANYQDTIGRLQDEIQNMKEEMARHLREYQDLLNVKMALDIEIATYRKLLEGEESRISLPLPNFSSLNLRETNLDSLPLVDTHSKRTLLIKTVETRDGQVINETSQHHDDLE
UniProt P07355: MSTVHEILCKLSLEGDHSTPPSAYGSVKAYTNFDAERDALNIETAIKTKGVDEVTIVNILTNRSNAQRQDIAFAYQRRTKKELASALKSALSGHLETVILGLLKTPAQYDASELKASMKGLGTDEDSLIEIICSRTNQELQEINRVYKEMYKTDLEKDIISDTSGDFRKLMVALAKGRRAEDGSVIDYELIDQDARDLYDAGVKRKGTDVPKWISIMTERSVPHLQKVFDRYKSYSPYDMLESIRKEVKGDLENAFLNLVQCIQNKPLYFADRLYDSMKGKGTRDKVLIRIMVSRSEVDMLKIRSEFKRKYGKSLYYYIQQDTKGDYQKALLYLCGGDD

Results are given in words; binding and its absence hold for the method and conditions named. For some assays here: Binding seen in cells or lysates may run through a third protein. Some binding calls cover weakened binding; strength is not graded here.

For the substance “Recombinant human AnxA2 (from UniProt P07355 1-339)”, the binding entry with purified vimentin was “binds”. With Vimentin (from UniProt P08670 1-466), the binding entry in experiment [1] is listed as “binds”.

For the origin of these results see paper PMC12065020.
